Counter-ions that a name gives are not always drawn. The list shows a part of the results. Single values are uncertain here, since repeats match poorly.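 The cells are human U-2 OS cells that stably carry a GFP sensor with a nuclear import signal and a classical export signal. They were transfected to make PR50, a 50-repeat proline–arginine dipeptide protein from the ALS/FTD gene C9ORF72. Each well's nuclear-minus-cytoplasm GFP signal was scaled from in-plate DMSO (low) to PR-only wells (high), then scored against the other test wells on the plate; compounds scoring well below zero were called hits that reverse the PR effect.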

This test has as its system U-2 OS NCT-C biosensor cells expressing PR50. The test is described as follows: Z-score of normalised NCT-C biosensor translocation index in PR50-expressing cells; higher = more nuclear biosensor (more disrupted nuclear export). To be noted: 3 µM; 24 h.
As for `COc1cc2c(cc1O)C[C@H]1c3c(cc(O)c(OC)c3-2)CCN1C` [Boldine], the Z-score is inactive: -0.329.
The same measure for `Cc1sc2c(c1C)C(c1ccc(Cl)cc1)=N[C@@H](CC(=O)OC(C)(C)C)c1nnc(C)n1-2`: inactive: 0.971; for `CN1C2CC(=O)CC1C(O)C2` (stereo unspecified) [6-Hydroxytropinone]: inactive: -0.0792.
On to `C[C@@H]1CC[C@]2(NC1)O[C@H]1C[C@H]3[C@@H]4CC=C5C[C@@H](O)CC[C@]5(C)[C@H]4CC[C@]3(C)[C@H]1[C@@H]2C` [Solasodine], for which the Z-score was inactive: -0.709.
For the compound `COc1ccc(OC)c(C(O)C(C)N)c1` (stereo unspecified) [Methoxamine hydrochloride], the Z-score was inactive: -0.79.
As to `C[C@@]12C(=O)OC(=O)[C@]1(C)[C@H]1CC[C@@H]2O1` [Cantharidin], the Z-score is inactive: 0.182.
In the case of `Cl[C@H]1[C@H](Cl)[C@@H](Cl)[C@@H](Cl)[C@H](Cl)[C@H]1Cl` [Lindane] it was inactive: 0.101; in that of `Cc1ccc2c(c1)C1(CCN(CCc3nc(-c4ccccc4)oc3C)CC1)OC(=O)N2`, inactive: 0.033; in that of `NC(CP(=O)(O)O)C(=O)O` (racemic) [(±)-2-Amino-3-  phosphono propionic acid], inactive: 0.0518.
In the case of `NC1CCc2cc(O)c(O)cc2C1` (stereo unspecified) [6,7-ADTN  hydrobromide] it was inactive: -0.228; in that of `N[C@@H]1C[C@H]1c1ccccc1.N[C@H]1C[C@@H]1c1ccccc1` [Tranylcypromine hemisulfate], active: -2.2; in that of `N[C@@H]1C[C@H]1c1ccccc1.N[C@H]1C[C@@H]1c1ccccc1` [Tranylcypromine Hemisulfate], inactive: 0.032.
For the compound `OCC1C(O)C(O)C2C(O)CCN12` (stereo unspecified) [Australine·HCl], the Z-score was inactive: -0.637.
With `CN1C2CCC1CC(O)C2` (stereo unspecified) [Tropine], the Z-score is inactive: -0.596.
In the case of `C[N+]1(C)CCCC(OC(=O)C(O)(c2ccccc2)c2ccccc2)C1` (stereo unspecified) [Mepenzolate Bromide] it was inactive: -0.928; in that of `NCC1(CC(=O)O)CCCCC1` [GABApentin], inactive: -0.0674; in that of `NCC1(CC(=O)O)CCCCC1` [Gabapentin], inactive: -0.941.
The same measure for `O=c1cccc2n1C[C@@H]1CNC[C@H]2C1` [(-)-Cytisine]: inactive: 0.868; for `CC(C)Oc1cccnc1N(C)C1CCN(Cc2ccccc2)CC1`: inactive: -0.625.
As for `CCN1C[C@]2(COC)CC[C@H](OC)[C@]34C5C[C@@H]6[C@@H](OC)C[C@@]7(OCO[C@@]7(C13)[C@@H](O)C24)C5[C@H]6OC` (stereo partly specified) [Delcorine], the Z-score is inactive: -0.51.
In the case of `O=[N+]([O-])O[C@H]1CO[C@H]2[C@@H]1OC[C@H]2O[N+](=O)[O-]` [Isosorbide Dinitrate] it was inactive: 0.974; in that of `O=C(CCCN1CCC2(CC1)C(=O)NCN2c1ccccc1)c1ccc(F)cc1` [Spiperone], inactive: -0.61; in that of `CCCN(CCC)C1CCc2ccc(O)cc2C1` (racemic) [(±)-7-Hydroxy-DPAT hydrobromide], inactive: -0.537.
The same measure for `Cc1ncsc1CCCl` [Chlormethiazole HCl]: inactive: 0.143.
In the case of `CCC1(c2ccc(N)cc2)CCC(=O)NC1=O` (racemic) [(±)-p-  Aminoglutethimide] it was inactive: 0.115; in that of `CCOC(=O)c1cncn1[C@H](C)c1ccccc1` [Etomidate], inactive: 1.07; in that of `CCN1CCN(C(=O)Cc2ccc(Nc3ncc(F)c(Nc4ccc(C(=O)Nc5ccccc5Cl)cc4)n3)cc2)CC1` [Aurora-A Inhibitor I], inactive: 0.545.
Consider `CN1CCc2cc3c(cc2C1C1OC(=O)c2c1ccc1c2OCO1)OCO3` (single isomer, unassigned; (+)) [(+)-Bicuculline], for which the Z-score was inactive: 0.235.
As to `CC(O)(CS(=O)(=O)c1ccc(F)cc1)C(=O)Nc1ccc(C#N)c(C(F)(F)F)c1` (stereo unspecified) [Bicalutamide], the Z-score is inactive: -0.381.
For the compound `CC(O)(CS(=O)(=O)c1ccc(F)cc1)C(=O)Nc1ccc(C#N)c(C(F)(F)F)c1` (stereo unspecified) [Bicalutamide (CDX)], the Z-score is inactive: 1.74.
The same measure for `CCC1(C2=NCCN2)Cc2ccccc2O1` (stereo unspecified) [Efaroxan hydrochloride]: inactive: -0.19; for `C/C(=C/C=C/[C@@H](C)C(=O)O)[C@H]1CN[C@H](C(=O)O)[C@H]1CC(=O)O` [Domoic acid]: inactive: -0.824.
The same measure for `CC[C@@H](CO)NC(=O)[C@@H]1C=C2c3cccc4[nH]cc(c34)C[C@H]2N(C)C1` [Methylergonovine maleate]: inactive: 0.666; for `CC[C@@H](CO)NC(=O)[C@@H]1C=C2c3cccc4[nH]cc(c34)C[C@H]2N(C)C1` [Methylergonovine Maleate]: inactive: -0.24.
The same measure for `CC[C@@H](CO)NC(=O)[C@@H]1C=C2c3cccc4[nH]cc(c34)C[C@H]2N(C)C1` [Methylergonovine maleate salt]: inactive: 0.372; for `COc1cc2c(cc1O)CCN[C@@H]2C` [Salsoline]: inactive: -0.745.
Take `O=C(O)c1nn(Cc2ccc(Cl)cc2Cl)c2ccccc12` [Lonidamine]: the Z-score was inactive: 0.678.
The same measure for `O=c1[nH]oc2c1CCNC2` [THIP  hydrochloride]: inactive: -0.279; for `CC(=O)O[C@H]1C(=O)[C@@]2(C)[C@H]([C@H](OC(=O)c3ccccc3)[C@]3(O)C[C@H](O)C(C)=C1C3(C)C)[C@]1(OC(C)=O)CO[C@@H]1C[C@@H]2O` [Baccatin III]: inactive: -0.505; for `c1cncc([C@@H]2CCCCN2)c1` (racemic) [(±)-Anabasine]: inactive: -0.367.
The same measure for `NC(Cc1cc(O)c(O)cc1O)C(=O)O` (racemic) [6-Hydroxy-DL- DOPA]: inactive: -0.314; for `CN1C[C@H](CO)C[C@@H]2c3cccc4[nH]cc(c34)C[C@H]21` [9,10-Dihydrolysergol]: inactive: -1.25.
Turning to `C[N+]1(C)[C@@H]2CC(OC(=O)[C@H](CO)c3ccccc3)C[C@H]1[C@@H]1O[C@@H]12` (single isomer, unassigned; (-)) [(-)-Scopolamine methyl nitrate], the Z-score was inactive: -0.913.
In the case of `COc1ccc2c(c1O)-c1cccc3c1[C@@H](C2)N(C)CC3` [R(-)-Apocodeine hydrochloride], the Z-score was inactive: -0.99.
`COC1=CC(=O)O[C@@H](/C=C/c2ccc3c(c2)OCO3)C1` [Methysticin]: the Z-score is inactive: -0.445.
The same measure for `CC(N)C(O)c1ccc(O)c(O)c1` (single isomer, unassigned; (-)) [(-)-alpha-Methyl norepinephrine]: inactive: -1.57.
For the compound `CC1C=CC=CCCC=CC=CC=CC=CC(OC2OC(C)C(O)C(N)C2O)CC2OC(O)(CC(O)C(O)CCC(O)CC(O)CC(O)CC(=O)OC(C)C(C)C1O)CC(O)C2C(=O)O` (stereo unspecified) [Nystatin], the Z-score was inactive: -0.308.
The same measure for `CC[C@H](C)/C=C(C)/C=C/C1=CC2=C(Cl)C(=O)[C@](C)(OC(C)=O)C(=O)C2=CO1` [Sclerotiorin]: inactive: -0.195.
In the case of `Cc1cc([C@@H]2CCCN2C)on1` [ABT-418 hydrochloride] it was inactive: -0.477.
The same measure for `CC[C@@H](CO)NC(=O)[C@@H]1C=C2c3cccc4c3c(cn4C)C[C@H]2N(C)C1` [Methysergide maleate]: inactive: 0.159; for `N#C[C@H](O[C@@H]1O[C@H](CO[C@@H]2O[C@H](CO)[C@@H](O)[C@H](O)[C@H]2O)[C@@H](O)[C@H](O)[C@H]1O)c1ccccc1` [Amygdalin]: inactive: -0.489.
Regarding `CC(C)C1CNC(C(=O)O)C1CC(=O)O` (stereo unspecified) [Dihydrokainic acid], the Z-score was inactive: 0.0663.
Consider `COc1cc2c(c(OC)c1OC)-c1ccc(OC)c(=O)cc1[C@@H](NC(C)=O)CC2` [Colchicine], for which the Z-score is inactive: 0.262.
The same measure for `COc1cc2c(c3oc4cccc(O)c4c(=O)c13)[C@@H]1C=CO[C@@H]1O2` [Sterigmatocystin]: inactive: -0.474; for `COc1ccc(CC2NCCc3cc(OC)c(OC)cc32)cc1OC` (stereo unspecified) [Tetrahydropapaverine·HCl]: inactive: -0.725; for `c1ccc2c(c1)OCC(C1=NCCN1)O2` (stereo unspecified) [Idazoxan hydrochloride]: inactive: 0.342.
`C[C@]12CC[C@@H](O)C[C@@H]1CC[C@@H]1[C@@H]2CC[C@]2(C)[C@@H](C(=O)CO)CC[C@@H]12` [3-alpha,21-Dihydroxy-5alpha-pregnan-20-one]: the Z-score is inactive: -0.543.
On to `CCCN(CCC)C1CCc2cccc(O)c2C1` (racemic) [(±)-8-Hydroxy- DPAT  hydrobromide], for which the Z-score was inactive: -0.388.
As for `CC1=C2C(=CO[C@H](C)[C@H]2C)C(O)=C(C(=O)O)C1=O` [Citrinin], the Z-score was inactive: -0.468.
The same measure for `CC(C)c1cccc(C(C)C)c1O` [Propofol]: inactive: -0.185; for `CC(=O)N[C@H]1CN2CC[C@H](O)[C@@H]2[C@@H](O)[C@@H]1O` [6-Acetamido-6-deoxy-castanospermine]: inactive: -0.399; for `CCCN1CCC[C@@H]2Cc3n[nH]cc3C[C@H]21` [(-)-Quinpirole hydrochloride]: inactive: -0.499.
In the case of `C[C@]1(C(=O)O)CCC[C@]2(C)c3cc(O)ccc3CC[C@@H]12` [Podocarpic acid] it was inactive: -0.467; in that of `CN1C[C@H](CNC(=O)OCc2ccccc2)C[C@@H]2c3cccc4c3c(cn4C)C[C@H]21` [Metergoline], inactive: -0.0588.
`O=[N+]([O-])c1ncc[nH]1` [Azomycin]: the Z-score was inactive: -0.27.
In the case of `OCc1cnc[nH]1` [4-Imidazole methanol HCl] it was inactive: 0.166.
